Measured values published in paper PMC4865133.
These are yes or no findings as the source states them, for the method shown. For part of these data: In cells and extracts the contact can be indirect. Some binding calls cover weakened binding; strength is not graded here. Where a sequence is shown, tags or fusion partners need not be part of it.

T1: MORC6 fused with GAL4-BD (Arabidopsis) (UniProt Q56Y74)
T1 sequence: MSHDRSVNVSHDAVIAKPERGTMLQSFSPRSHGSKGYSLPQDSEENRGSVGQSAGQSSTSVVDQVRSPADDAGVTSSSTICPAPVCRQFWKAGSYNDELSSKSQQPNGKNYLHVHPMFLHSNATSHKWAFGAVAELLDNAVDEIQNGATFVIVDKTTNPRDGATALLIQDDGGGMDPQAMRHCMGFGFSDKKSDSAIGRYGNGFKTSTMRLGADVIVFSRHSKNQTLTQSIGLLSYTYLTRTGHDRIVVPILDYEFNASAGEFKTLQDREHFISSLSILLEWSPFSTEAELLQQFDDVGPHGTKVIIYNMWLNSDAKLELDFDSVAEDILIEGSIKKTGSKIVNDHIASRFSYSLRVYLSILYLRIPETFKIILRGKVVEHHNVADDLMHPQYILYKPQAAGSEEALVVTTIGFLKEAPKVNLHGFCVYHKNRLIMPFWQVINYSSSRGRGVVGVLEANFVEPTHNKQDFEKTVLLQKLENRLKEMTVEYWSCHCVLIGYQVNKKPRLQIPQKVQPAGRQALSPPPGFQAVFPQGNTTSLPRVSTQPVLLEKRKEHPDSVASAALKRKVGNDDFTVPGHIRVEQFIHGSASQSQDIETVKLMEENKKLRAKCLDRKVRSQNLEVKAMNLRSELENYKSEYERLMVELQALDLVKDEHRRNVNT

T2: MORC6 fused with N-LUC (Arabidopsis) (UniProt Q56Y74)
T2 sequence: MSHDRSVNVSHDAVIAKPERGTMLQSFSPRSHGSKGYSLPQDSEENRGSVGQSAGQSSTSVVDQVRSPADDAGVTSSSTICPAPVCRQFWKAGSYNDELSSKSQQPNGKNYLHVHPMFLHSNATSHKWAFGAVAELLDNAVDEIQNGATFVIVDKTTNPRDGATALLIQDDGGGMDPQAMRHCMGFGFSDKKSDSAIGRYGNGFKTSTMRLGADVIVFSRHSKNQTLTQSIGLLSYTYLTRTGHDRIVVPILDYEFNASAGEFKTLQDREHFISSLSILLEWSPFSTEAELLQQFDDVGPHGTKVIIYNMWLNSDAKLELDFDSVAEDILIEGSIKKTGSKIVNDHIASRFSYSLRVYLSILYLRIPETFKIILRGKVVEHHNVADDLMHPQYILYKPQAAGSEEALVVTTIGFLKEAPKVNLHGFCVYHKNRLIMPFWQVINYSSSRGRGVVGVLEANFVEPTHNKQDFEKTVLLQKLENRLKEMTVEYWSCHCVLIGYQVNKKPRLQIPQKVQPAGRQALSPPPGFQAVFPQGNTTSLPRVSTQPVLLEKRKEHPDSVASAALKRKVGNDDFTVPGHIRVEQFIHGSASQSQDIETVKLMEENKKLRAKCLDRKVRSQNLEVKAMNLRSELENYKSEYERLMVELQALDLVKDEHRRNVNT

T3: SUVH9 fused with N-LUC (Arabidopsis) (UniProt Q9T0G7)
T3 sequence: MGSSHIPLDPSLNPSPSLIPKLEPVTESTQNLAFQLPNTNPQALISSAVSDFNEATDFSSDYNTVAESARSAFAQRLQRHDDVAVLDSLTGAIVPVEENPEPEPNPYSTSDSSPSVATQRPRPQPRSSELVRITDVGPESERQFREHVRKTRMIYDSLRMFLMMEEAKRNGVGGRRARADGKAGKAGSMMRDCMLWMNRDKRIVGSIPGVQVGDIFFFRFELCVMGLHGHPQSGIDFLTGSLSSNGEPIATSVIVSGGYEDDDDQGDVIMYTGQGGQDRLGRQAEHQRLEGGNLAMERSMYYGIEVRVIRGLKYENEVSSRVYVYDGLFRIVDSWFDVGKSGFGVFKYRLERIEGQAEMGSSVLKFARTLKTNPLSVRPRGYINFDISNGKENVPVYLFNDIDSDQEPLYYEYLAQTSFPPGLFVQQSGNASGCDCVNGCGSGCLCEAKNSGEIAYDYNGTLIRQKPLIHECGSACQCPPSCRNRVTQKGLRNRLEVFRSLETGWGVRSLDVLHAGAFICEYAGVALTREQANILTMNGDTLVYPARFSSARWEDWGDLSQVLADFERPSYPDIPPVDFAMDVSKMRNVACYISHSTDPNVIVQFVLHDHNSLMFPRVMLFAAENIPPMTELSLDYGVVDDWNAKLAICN


Tests used:
[1] = target: T1, MORC6 fused with GAL4-BD (Arabidopsis); experiment: two-hybrid; GAL4-AD fusions (pGADT7) and GAL4-BD fusions (pGBKT7); mating of Y187 and AH109, confirmed by co-transformation into AH109; growth on SD-Trp-Leu-His with 5 mM 3-AT
[2] = target: T2, MORC6 fused with N-LUC (Arabidopsis); experiment: split reporter; split luciferase complementation; N-LUC and C-LUC fusions infiltrated with Agrobacterium into N. benthamiana leaves; luminescence imaged after 48 h
[3] = target: T3, SUVH9 fused with N-LUC (Arabidopsis); experiment: as above

Binder | binding [1] | binding [2] | binding [3]
IDN2 (full-length) fused with GAL4-AD (protein, UniProt Q8VZ79 1-647) MGSTVILSSDDEDSDISESEMDEYGDKMYLNLKGGKLKVRLSPQAFICPYCPNKKKTSFQYKDLLQHASGVGNSNSDKRSAKEKASHLALVKYLQQDLADSASEAEPSSKRQKNGNPIQDCDHDEKLVYPWKGIVVNIPTTKAQDGRSAGESGSKLRDEYILRGFNPTRVRPLWNYLGHSGTAIVEFNKDWNGLHNGLLFDKAYTVDGHGKKDWLKKDGPKLGLYGWIARADDYNGNNIIGENLRKTGDLKTIAELTEEEARKQELLVQNLRQLVEEKKKDMKEIEELCSVKSEELNQLMEEKEKNQQKHYRELNAIQERTMSHIQKIVDDHEKLKRLLESERKKLEIKCNELAKREVHNGTERMKLSEDLEQNASKNSSLELAAMEQQKADEEVKKLAEDQRRQKEELHEKIIRLERQRDQKQAIELEVEQLKGQLNVMKHMASDGDAEVVKEVDIIFKDLGEKEAQLADLDKFNQTLILRERRTNDELQEAHKELVNIMKEWNTNIGVKRMGELVTKPFVDAMQQKYCQQDVEDRAVEVLQLWEHYLKDSDWHPFKRVKLENEDREVEVIDDRDEKLRELKADLGDGPYNAVTKALLEINEYNPSGRYITTELWNFKADKKATLEEGVTCLLDQWEKAKRKRGMA | binds |  | 
SWI3D fused with C-LUC (protein, UniProt Q8VY05 1-985) MEEKRRDSAGTLAFAGSSGDSPASEPMPAPRRRGGGLKRKANALGGSNFFSSAPSKRMLTREKAMLASFSPVHNGPLTRARQAPSIMPSAADGVKSEVLNVAVGADGEKPKEEEERNKAIREWEALEAKIEADFEAIRSRDSNVHVVPNHCGWFSWEKIHPLEERSLPSFFNGKLEGRTSEVYREIRNWIMGKFHSNPNIQIELKDLTELEVGDSEAKQEVMEFLDYWGLINFHPFPPTDTGSTASDHDDLGDKESLLNSLYRFQVDEACPPLVHKPRFTAQATPSGLFPDPMAADELLKQEGPAVEYHCNSCSADCSRKRYHCPKQADFDLCTECFNSGKFSSDMSSSDFILMEPAEAPGVGSGKWTDQETLLLLEALEIFKENWNEIAEHVATKTKAQCMLHFLQMPIEDAFLDQIDYKDPISKDTTDLAVSKDDNSVLKDAPEEAENKKRVDEDETMKEVPEPEDGNEEKVSQESSKPGDASEETNEMEAEQKTPKLETAIEERCKDEADENIALKALTEAFEDVGHSSTPEASFSFADLGNPVMGLAAFLVRLAGSDVATASARASIKSLHSNSGMLLATRHCYILEDPPDNKKDPTKSKSCSADAEGNDDNSHKDDQPEEKSKKAEEVSLNSDDREMPDTDTGKETQDSVSEEKQPGSRTENSTTKLDAVQEKRSSKPVTTDNSEKPVDIICPSQDKCSGKELQEPLKDGNKLSSENKDASQSTVSQSAADASQPEASRDVEMKDTLQSEKDPEDVVKTVGEKVQLAKEEGANDVLSTPDKSVSQQPIGSASAPENGTAGGNPNIEGKKEKDICEGTKDKYNIEKLKRAAISAISAAAVKAKNLAKQEEDQIRQLSGSLIEKQLHKLEAKLSIFNEAESLTMRVREQLERSRQRLYHERAQIIAARLGVPPSMSSKASLPTNRIAANFANVAQRPPMGMAFPRPPMPRPPGFPVPGSFVAATTMTGSSDPSPGSDNVSSV |  | binds | binds
SWI3C fused with C-LUC (protein, UniProt Q9XI07 1-807) MPASEDRRGKWKRKKRGGLSAARKPKQEEEDMEEEDEENNNNNNEEMDDVENADELQQNGGATPDPGLGIGEVVEDSGSRISDFPAVVKRVVIRPHASVMAVVAAERAGLIGETRGQGSLPALENISFGQLQALSTVPADSLDLERSDGSSSAYVISPPPIMDGEGVVKRFGDLVHVLPMHSDWFAPNTVDRLERQVVPQFFSGKSPNHTPESYMEFRNAIVSKYVENPEKTLTISDCQGLVDGVDIEDFARVFRFLDHWGIINYCATAQSHPGPLRDVSDVREDTNGEVNVPSAALTSIDSLIKFDKPNCRHKGGEVYSSLPSLDGDSPDLDIRIREHLCDSHCNHCSRPLPTVYFQSQKKGDILLCCDCFHHGRFVVGHSCLDFVRVDPMKFYGDQDGDNWTDQETLLLLEAVELYNENWVQIADHVGSKSKAQCILHFLRLPVEDGLLDNVEVSGVTNTENPTNGYDHKGTDSNGDLPGYSEQGSDTEIKLPFVKSPNPVMALVAFLASAVGPRVAASCAHESLSVLSEDDRMKSEGMQGKEASLLDGENQQQDGAHKTSSQNGAEAQTPLPQDKVMAAFRAGLSAAATKAKLFADHEEREIQRLSANIVNHQLKRMELKLKQFAEIETLLMKECEQVEKTRQRFSAERARMLSARFGSPGGISPQTNNLQGMSLSTGGNNINSLMHQQHQQQQASATSQPSIIPGFSNNPQVQAQMHFMARQQQQQQQQQQQQQQAFSFGPRLPLNAIQTNAGSTASPNVMFGNNQLNNPAAAGAASINQPSFSHPMVRSSTGSGSGSGLGLN |  | binds | binds
IDN2 fused with C-LUC (protein, UniProt Q8VZ79 1-647) MGSTVILSSDDEDSDISESEMDEYGDKMYLNLKGGKLKVRLSPQAFICPYCPNKKKTSFQYKDLLQHASGVGNSNSDKRSAKEKASHLALVKYLQQDLADSASEAEPSSKRQKNGNPIQDCDHDEKLVYPWKGIVVNIPTTKAQDGRSAGESGSKLRDEYILRGFNPTRVRPLWNYLGHSGTAIVEFNKDWNGLHNGLLFDKAYTVDGHGKKDWLKKDGPKLGLYGWIARADDYNGNNIIGENLRKTGDLKTIAELTEEEARKQELLVQNLRQLVEEKKKDMKEIEELCSVKSEELNQLMEEKEKNQQKHYRELNAIQERTMSHIQKIVDDHEKLKRLLESERKKLEIKCNELAKREVHNGTERMKLSEDLEQNASKNSSLELAAMEQQKADEEVKKLAEDQRRQKEELHEKIIRLERQRDQKQAIELEVEQLKGQLNVMKHMASDGDAEVVKEVDIIFKDLGEKEAQLADLDKFNQTLILRERRTNDELQEAHKELVNIMKEWNTNIGVKRMGELVTKPFVDAMQQKYCQQDVEDRAVEVLQLWEHYLKDSDWHPFKRVKLENEDREVEVIDDRDEKLRELKADLGDGPYNAVTKALLEINEYNPSGRYITTELWNFKADKKATLEEGVTCLLDQWEKAKRKRGMA |  | binds | 
